Measurements as given in patent US20250215059A1.
These are yes or no findings as the source states them, for the method shown. Some results given as binding are weak or reduced against the parent protein; the word gives no strength. Values belong to the binder of their own block, whether it stands above or below them.

Key:
[1] = target: tau aggregates in HEK293 tau biosensor cells (4R repeat domain of tau (K18) with the P301S mutation fused to CFP or YFP, seeded with clarified tau mouse brain homogenate) (UniProt P10636); experiment: fold enrichment of Halo signal in cytoplasmic tau aggregates, immunofluorescence, against the untargeted Halo fusion
[2] = target: tau aggregates in HEK293 tau biosensor cells (4R repeat domain of tau (K18) with the P301S mutation fused to CFP or YFP, seeded with clarified tau mouse brain homogenate) (UniProt P10636); experiment: fold enrichment of Halo signal in cytoplasmic tau aggregates, immunofluorescence, against FAF2-Halo
[3] = target: tau aggregates in HEK293 tau biosensor cells (4R repeat domain of tau (K18) with the P301S mutation fused to CFP or YFP, seeded with clarified tau mouse brain homogenate) (UniProt P10636); experiment: fold enrichment of Halo signal in cytoplasmic tau aggregates, immunofluorescence, against the Halo-only form
[4] = target: tau aggregates in HEK293 tau biosensor cells (4R repeat domain of tau (K18) with the P301S mutation fused to CFP or YFP, seeded with clarified tau mouse brain homogenate) (UniProt P10636); experiment: Halo imaging
[5] = target: tau aggregates in HEK293 tau biosensor cells (4R repeat domain of tau (K18) with the P301S mutation fused to CFP or YFP, seeded with clarified tau mouse brain homogenate) (UniProt P10636); experiment: Halo imaging (FIG. 7C)
[6] = target: tau aggregates in HEK293 tau biosensor cells (4R repeat domain of tau (K18) with the P301S mutation fused to CFP or YFP, seeded with clarified tau mouse brain homogenate) (UniProt P10636); experiment: Halo imaging in HEK293 tau biosensor cells

binding [1]: binds
B1: 42-polyserine-TNPO3-halo (protein)
chain: MEGAKPTLQLVYQAVQALYHDPDPSGKERASFWLGELQRSVHAWEISDQLLQIRQDVESCYFAAQTMKMKIQTSFYELPTDSHASLRDSLLTHIQNLKDLSPVIVTQLALAIADLALQMPSWKGCVQTLVEKYSNDVTSLPFLLEILTVLPEEVHSRSLRIGANRRTEIIEDLAFYSSTVVSLLMTCVEKAGTDEKMLMKVFRCLGSWFNLGVLDSNFMANNKLLALLFEVLQQDKTSSNLHEAASDCVCSALYAIENVETNLPLAMQLFQGVLTLETAYHMAVAREDLDKVLNYCRIFTELCETFLEKIVCTPGQGLGDLRTLELLLICAGHPQYEVVEISFNFWYRLGEHLYKTNDEVIHGIFKAYIQRLLHALARHCQLEPDHEGVPEETDDFGEFRMRVSDLVKDLIFLIGSMECFAQLYSTLKEGNPPWEVTEAVLFIMAAIAKSVDPENNPTLVEVLEGVVRLPETVHTAVRYTSIELVGEMSEVVDRNPQFLDPVLGYLMKGLCEKPLASAAAKAIHNICSVCRDHMAQHFNGLLEIARSLDSFLLSPEAAVGLLKGTALVLARLPLDKITECLSELCSVQVMALKKLLSQEPSNGISSDPTVFLDRLAVIFRHTNPIVENGQTHPCQKVIQEIWPVLSETLNKHRADNRIVERCCRCLRFAVRCVGKGSAALLQPLVTQMVNVYHVHQHSCFLYLGSILVDEYGMEEGCRQGLLDMLQALCIPTFQLLEQQNGLQNHPDTVDDLFRLATRFIQRSPVTLLRSQVVIPILQWAIASTTLDHRDANCSVMRFLRDLIHTGVANDHEEDFELRKELIGQVMNQLGQQLVSQLLHTCCFCLPPYTLPDVAEVLWEIMQVDRPTFCRWLENSLKGLPKETTVGAVTVTHKQLTDFHKQVTSAEECKQVCWALRDFTRLFRGTELGSTSPVWWNSADISSSSSSSSSSSSSSSSSSSSSSSSSSSSSSSSSSSSSSSSSSGGSGGSGGGSEIGTGFPFDPHYVEVLGERMHYVDVGPRDGTPVLFLHGNPTSSYVWRNIIPHVAPTHRCIAPDLIGMGKSDKPDLGYFFDDHVRFMDAFIEALGLEEVVLVIHDWGSALGFHWAKRNPERVKGIAFMEFIRPIPTWDEWPEFARETFQAFRTTDVGRKLIIDQNVFIEGTLPMGVVRPLTEVEMDHYREPFLNPVDREPLWRFPNELPIAGEPANIVALVEEYMDWLHQSPVPKLLFWGTPGVLIPPAEAARLAKSLPNCKAVDIGPGLNLLQEDNPDLIGSEIARWLSTLEISG

binding [2]: binds
B2: FAF2-42PS-Halo (protein)
chain: MAAPEERDLTQEQTEKLLQFQDLTGIESMDQCRHTLEQHNWNIEAAVQDRLNEQEGVPSVFNPPPSRPLQVNTADHRIYSYVVSRPQPRGLLGWGYYLIMLPFRFTYYTILDIFRFALRFIRPDPRSRVTDPVGDIVSFMHSFEEKYGRAHPVFYQGTYSQALNDAKRELRFLLVYLHGDDHQDSDEFCRNTLCAPEVISLINTRMLFWACSTNKPEGYRVSQALRENTYPFLAMIMLKDRRMTVVGRLEGLIQPDDLINQLTFIMDANQTYLVSERLEREERNQTQVLRQQQDEAYLASLRADQEKERKKREERERKRRKEEEVQQQKLAEERRRQNLQEEKERKLECLPPEPSPDDPESVKIIFKLPNDSRVERRFHFSQSLTVIHDFLFSLKESPEKFQIEANFPRRVLPCIPSEEWPNPPTLQEAGLSHTEVLFVQDLTDESSSSSSSSSSSSSSSSSSSSSSSSSSSSSSSSSSSSSSSSSSMAEIGTGFPFDPHYVEVLGERMHYVDVGPRDGTPVLFLHGNPTSSYVWRNIIPHVAPTHRCIAPDLIGMGKSDKPDLGYFFDDHVRFMDAFIEALGLEEVVLVIHDWGSALGFHWAKRNPERVKGIAFMEFIRPIPTWDEWPEFARETFQAFRTTDVGRKLIIDQNVFIEGTLPMGVVRPLTEVEMDHYREPFLNPVDREPLWRFPNELPIAGEPANIVALVEEYMDWLHQSPVPKLLFWGTPGVLIPPAEAARLAKSLPNCKAVDIGPGLNLLQEDNPDLIGSEIARWLSTLEISG

binding [3]: binds
B3: SRRM2 C-terminus-halo (protein)
chain: SRCLIAQTTPVAGSQSLSSGAVATTTSSAGDHNGMLSVPAPGVPHSDVGEPPASTGAQQPSALAALQPAKERRSSSSSSSSSSSSSSSSSSSSSSSSSGSSSSDSEGSSLPVQPEVALKRVPSPTPAPKEAVREGRPPEPTPAKRKRRSSSSSSSSSSSSSSSSSSSSSSSSSSSSSSSSSSSSSSSSSSPSPAKPGPQALPKPASPKKPPPGERRSRSPRKPIDSLRDSRSLSYSPVERRRPSPQPSPRDQQSSSSERGSRRGQRGDSRSPSHKRRRETPSPRPMRHRSSRSPMAEIGTGFPFDPHYVEVLGERMHYVDVGPRDGTPVLFLHGNPTSSYVWRNIIPHVAPTHRCIAPDLIGMGKSDKPDLGYFFDDHVRFMDAFIEALGLEEVVLVIHDWGSALGFHWAKRNPERVKGIAFMEFIRPIPTWDEWPEFARETFQAFRTTDVGRKLIIDQNVFIEGTLPMGVVRPLTEVEMDHYREPFLNPVDREPLWRFPNELPIAGEPANIVALVEEYMDWLHQSPVPKLLFWGTPGVLIPPAEAARLAKSLPNCKAVDIGPGLNLLQEDNPDLIGSEIARWLSTLEISG

binding [4]: binds
binding [5]: binds
binding [6]: binds
B4: PNN C-terminus-halo (protein)
chain: MSKSRSRSSSSSSSSSSSTSSSSGSSSSSGSSSSRSSSSSSSSTSGSSSRDSSSSTSSSSESRSRSRMAEIGTGFPFDPHYVEVLGERMHYVDVGPRDGTPVLFLHGNPTSSYVWRNIIPHVAPTHRCIAPDLIGMGKSDKPDLGYFFDDHVRFMDAFIEALGLEEVVLVIHDWGSALGFHWAKRNPERVKGIAFMEFIRPIPTWDEWPEFARETFQAFRTTDVGRKLIIDQNVFIEGTLPMGVVRPLTEVEMDHYREPFLNPVDREPLWRFPNELPIAGEPANIVALVEEYMDWLHQSPVPKLLFWGTPGVLIPPAEAARLAKSLPNCKAVDIGPGLNLLQEDNPDLIGSEIARWLSTLEISG
